## Results from one PubChem assay

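DAOY medulloblastoma cells exposed to compounds for 48 hours, with luminescence from metabolically active cells serving as a viability measure. Each compound ran as a dilution series, mostly reaching about 46 µM at the top. The value is the fitted half-maximal potency (AC50) for cell killing; a lower number means a more potent compound. Calls come from curve class: inconclusive rows carry a score of 1 to 39 because their curves are weak, partial, poorly fitted or single-point, while actives score 40 to 100.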

Values are in µM. Every entry below has the call inconclusive. These entries are mostly ones the record files as inconclusive; other results of the assay are not listed here. Potencies fitted to partial, single-point or poorly fitting curves are rough. Some entries filed as inconclusive have a full curve. Activity scores are not listed here.

* Cc1cn2c(-c3cn[nH]c3)cnc2c(Nc2ccc(C(=O)N3CCNCC3)cc2F)n1 | fitted potency 23.3 µM (cytotoxic, partial curve, poor fit)
* Nc1ccn([C@@H]2O[C@H](CO)[C@H](O)C2(F)F)c(=O)n1 | fitted potency 4.143 µM (cytotoxic, partial curve)
* O=C(O)CCC1CCC(c2cc(F)ccc2F)(S(=O)(=O)c2ccc(Cl)cc2)CC1 (stereo not given) | fitted potency 16.49 µM (cytotoxic, partial curve, poor fit)
* COc1ccc2c(Oc3ccc(NC(=O)c4c(C)n(CC(C)(C)O)n(-c5ccccc5)c4=O)cc3F)ccnc2c1 | fitted potency 29.33 µM (cytotoxic, partial curve, poor fit)
* CC(C)(C)NC(=O)[C@H]1CN(Cc2cccnc2)CCN1C[C@@H](O)C[C@@H](Cc1ccccc1)C(=O)N[C@H]1c2ccccc2C[C@H]1O | fitted potency 14.7 µM (cytotoxic, partial curve)
* COc1cccc2c1C(=O)c1c(O)c3c(c(O)c1C2=O)C[C@@](O)(C(=O)CO)C[C@@H]3O[C@H]1C[C@H](N)[C@H](OC2CCCCO2)[C@H](C)O1 (stereo not given in full) | fitted potency 7.367 µM (cytotoxic, full curve)
* CCN(CC)CCOc1ccc2c(c1)C(=O)c1cc(OCCN(CC)CC)ccc1-2 | fitted potency 20.76 µM (cytotoxic, single point)
* CN(C)c1ccc(O)c2c1C[C@H]1C[C@H]3[C@H](N(C)C)C(=O)C(C(N)=O)=C(O)[C@@]3(O)C(=O)C1=C2O | fitted potency 20.76 µM (cytotoxic, partial curve, poor fit)
* OC[C@H](Cc1ccccc1)Nc1nc(Oc2ccc3c(c2)CCC3)nc2c1ncn2Cc1ccc(-c2ccccc2)cc1 | fitted potency 5.852 µM (cytotoxic, full curve)
* COc1cc(C(C)=O)ccc1OCCCN1CCC(c2noc3cc(F)ccc23)CC1 | fitted potency 20.76 µM (cytotoxic, single point)
* Nc1nc(OCc2ccccc2)c2[nH]cnc2n1 | fitted potency 36.92 µM (cytotoxic, partial curve, poor fit)
* O=C(CCc1ccc(O)cc1)c1c(O)cc(O)cc1O | fitted potency 29.33 µM (cytotoxic, single point)
* Cc1ccc(C(=O)Oc2ccc(C(O)CNC(C)(C)C)cc2OC(=O)c2ccc(C)cc2)cc1 (stereo not given) | fitted potency 4.143 µM (cytotoxic, full curve, poor fit)
* CNC(=O)c1cc(Oc2ccc(NC(=O)Nc3ccc(Cl)c(C(F)(F)F)c3)cc2)ccn1 | fitted potency 23.3 µM (cytotoxic, partial curve, poor fit)
* COc1ccc(-c2ccc3c(N4CCOC[C@H]4C)nc(N4CCOC[C@H]4C)nc3n2)cc1CO | fitted potency 0.4143 µM (cytotoxic, full curve)
* CNC(=O)c1c(F)cccc1Nc1nc(Nc2cc3c(cc2OC)CCN3C(=O)CN(C)C)nc2[nH]ccc12 | fitted potency 14.7 µM (cytotoxic, partial curve, poor fit)
* CC(C)C[C@H](NC(=O)c1cc2ccccc2s1)C(=O)N1CCN(C(=O)[C@H](CO)NS(=O)(=O)c2ccc(Cl)cc2Cl)CC1 | fitted potency 32.91 µM (cytotoxic, single point)
* Cc1cc(Nc2ncnc3ccc(-c4ccc(CNCCS(C)(=O)=O)o4)cc23)ccc1Oc1ccn2ncnc2c1 | fitted potency 4.143 µM (cytotoxic, partial curve, poor fit)
* CON(C)C(=O)N1N=C(c2cc(F)ccc2F)S[C@]1(CCCN)c1ccccc1 | fitted potency 0.0117 µM (cytotoxic, full curve)
* COc1ccc(-n2nc(C(N)=O)c3c2C(=O)N(c2ccc(N4CCCCC4=O)cc2)CC3)cc1 | fitted potency 9.275 µM (cytotoxic, partial curve, poor fit)
* CCCCn1c(=O)n(Cc2ccccc2F)c(=O)c2[nH]c(Cc3ccc(NC(C)=O)cc3)nc21 | fitted potency 5.216 µM (cytotoxic, full curve)
* CO[C@H]1C[C@@H]2CC[C@@H](C)[C@@](O)(O2)C(=O)C(=O)N2CCCC[C@@H]2C(=O)O[C@H]([C@H](C)C[C@@H]2CC[C@H](OP(C)(C)=O)[C@H](OC)C2)CC(=O)[C@H](C)C=C(C)[C@@H](O)[C@@H](OC)C(=O)[C@H](C)C[C@H](C)C=CC=CC=C1C | fitted potency 16.49 µM (cytotoxic, partial curve)
* O=C(CCCN1CCC(O)(c2ccc(Br)cc2)CC1)c1ccc(F)cc1 | fitted potency 20.76 µM (cytotoxic, single point)
* O=C(NCc1ccccc1)[C@H](Cc1ccccc1)NC(=O)[C@@H]1O[C@@H]1C(=O)NCCc1ccc(O)cc1 | fitted potency 16.49 µM (cytotoxic, partial curve)

Some entries from above, unchanged:

SMILES,fitted potency (µM),curve
Nc1ccn([C@@H]2O[C@H](CO)[C@H](O)C2(F)F)c(=O)n1,4.143,"cytotoxic, partial curve"
Cc1ccc(C(=O)Oc2ccc(C(O)CNC(C)(C)C)cc2OC(=O)c2ccc(C)cc2)cc1 (stereo not given),4.143,"cytotoxic, full curve, poor fit"

The results are deposited in PubChem (AID1347114; NCATS, 2019).